Experimental data: PubChem BioAssay AID504774 (Drosophila RNAi Screening Center, 2011)

- Aim: 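Knock-downs that shift viability of MMS-exposed cells relative to untreated ones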 (primary screen)
- System: Drosophila Kc167 cells
- Reagent: long dsRNA against Drosophila genes, about 0.25 µg dsRNA per well
- Duration: about 6 days: 3 days knock-down, then 3 days with or without MMS
- Conditions: methyl methanesulphonate 0.004% (w/v) for 3 days after knock-down
- Measured: 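Viability in wells given MMS, read as ATP luminescence, normalised by quantiles plate by plate and averaged across replicates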
- Direction: mean viability with MMS and viability with MMS: higher = more surviving cells after MMS
The deposit covers about 23,000 reagents; this is an unselected part of those with a known target gene and a result. 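Values are quantile-normalised luminescence on an arbitrary scale; higher means more cells surviving MMS.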 The numbers tell different reagents against one gene apart. Names joined by + are all predicted targets of the reagent.

predicted target	dsRNA no.	mean viability with MMS	viability with MMS, replicate 1	viability with MMS, replicate 2
Acsf3	1	3.68e6	4.14e6	4.20e6
nxf2	1	3.53e6	3.87e6	4.12e6
shu	1	3.46e6	4.06e6	3.71e6
Rpt2	1	2.77e6	3.56e6	3.55e6
Acbp1	1	3.78e6	4.44e6	4.15e6
rho	1	3.48e6	3.96e6	3.94e6
Sf3b5	1	3.19e6	3.71e6	3.68e6
mRpL9	1	3.50e6	4.15e6	3.80e6
CG14244	1	3.59e6	4.03e6	4.11e6
Ero1L	1	3.52e6	4.02e6	3.97e6
Xrp1	1	2.80e6	3.58e6	3.55e6
Xrp1	2	3.39e6	4.16e6	3.57e6
CG6638	1	3.54e6	3.93e6	4.11e6
Parg	1	3.55e6	4.04e6	4.03e6
mRpS33	1	3.37e6	3.86e6	3.75e6
RhoGAP92B	1	3.51e6	3.93e6	4.02e6
RhoGAP92B	2	3.36e6	3.81e6	3.85e6

The list goes on, starting with the last 3 of the part before.
predicted target	dsRNA no.	mean viability with MMS	viability with MMS, replicate 1	viability with MMS, replicate 2
mRpS33	1	3.37e6	3.86e6	3.75e6
RhoGAP92B	1	3.51e6	3.93e6	4.02e6
RhoGAP92B	2	3.36e6	3.81e6	3.85e6
CG17075	1	3.48e6	3.88e6	3.96e6
Dmtn	1	3.37e6	3.80e6	3.82e6
wor	1	3.58e6	4.04e6	4.08e6
CG4984 + CG4975	1	3.55e6	4.04e6	4.00e6
CG4984 + CG4975	2	3.77e6	4.31e6	4.21e6
CG3776	1	2.94e6	3.69e6	2.63e6
FIG4	1	3.26e6	3.66e6	3.58e6
CG14720	1	3.60e6	4.08e6	4.04e6
CG7557	1	3.53e6	4.09e6	3.90e6
TyrRS-m	1	3.03e6	2.79e6	2.93e6
CG11404	1	3.34e6	3.73e6	3.79e6
